In all, about 340,000 compounds went through this assay and about 6,200 (1.8%) were called active. This list was built around the results that the source calls inconclusive (neither active nor inactive); the mix of calls is not that of the screen. Calls follow the shape of the dose curve; as a rule, active = well fitted activation curve with a large enough effect; inconclusive = small, poorly fitted or top-dose-only effect; inactive = no such curve, though single readings can be large or run the other way. Potencies beside an inconclusive call are fits to weak or partial responses and may not hold up.
assay: A quantitative high throughput screen for small molecules that induce DNA re-replication in SW480 colon adenocarcinoma cells.; also: nearly all actives have a fitted effect of over 55% in size; conditions: Hoechst DNA content imaging, 48 h; series mostly up to 46.1 µM
In short: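 Cells (250 per well) received 23 nL compound or DMSO by pin tool and were kept 48 hr at 37 C, 5% CO2. Nuclei were then stained with Hoechst for 40 min and scanned for DNA content.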
Potency is read from the fitted curve at half-maximal effect.

SMILES | Potency
O=C(N/N=C/C(Cl)=C\c1ccccc1)c1cnccn1 | inactive
NCC(c1ccc(Cl)cc1Cl)c1c[nH]c2ccccc12 (stereo not drawn) | inconclusive: 12.6 µM [activator, partial curve, poor fit]
CC(C)c1ccc(S(=O)(=O)N2CCN(C(=O)c3ccc(N4CCCC4)c([N+](=O)[O-])c3)CC2)cc1 | inconclusive: 25.9 µM [activator, partial curve, poor fit]
Cc1ccc(Cl)cc1NC(=S)N/N=C/c1cccc2ccccc12 | active: 8.2 µM
O=C1C(=C(O)c2ccccc2)C(=O)c2ccccc21 | inactive
CC(C)(C)NC(=O)CN(C(=O)Cn1nnc(-c2ccc(Cl)cc2)n1)C1CCN(Cc2ccccc2)CC1 | inconclusive: 23.1 µM [activator, single point]
C=CCNCCOCCOc1ccccc1-c1ccccc1 | inconclusive: 20.6 µM [activator, single point]
O=C(COc1ccc([N+](=O)[O-])cc1)NCC(c1cccs1)N1CCOCC1 (stereo not drawn) | inconclusive: 29.1 µM [activator, single point]
Cc1ccc2[nH]cc(CCNC(=O)c3ccc4c(c3)OCO4)c2c1 | inconclusive: 11.6 µM [activator, single point]
c1ccc2c(c1)OCCOCCOCCOCCOc1ccccc1OCCOCCOCCO2 | inconclusive: 29.1 µM [activator, single point]
COc1ccc(NC(=O)CN2CCN(C(C)=O)CC2)cc1S(=O)(=O)N1CCOCC1 | inconclusive: 2.31 µM [activator, partial curve, poor fit]
O=C(Nc1ccc(C(F)(F)F)cc1)N1CCN(c2ccnc3cc(Cl)ccc23)CC1 | inconclusive: 6.51 µM [activator, partial curve, poor fit]
O=C(CN1C(=O)NC2(CCc3ccccc32)C1=O)c1ccc(Cl)cc1 (stereo not drawn) | inconclusive: 29.1 µM [activator, single point]
Cc1cc(C(=O)N2CCN(c3cccc(Cl)c3)CC2)c(C)o1 | inconclusive: 22.4 µM [activator, single point]
CC1(CCc2ccccc2)NC(=O)N(CC(=O)Nc2ccc(OC(F)F)cc2)C1=O (stereo not drawn) | inactive
COc1ccc(NC(=O)N(CCc2ccccc2)Cc2cc3c(C)cc(C)cc3[nH]c2=O)cc1 | inactive
NNC(=O)c1snnc1-c1ccccc1 | inconclusive: 23.1 µM [activator, single point]
O=C(CSc1nc(-c2ccc(F)cc2)cc(C(F)(F)F)n1)NCc1ccco1 | inconclusive: 16.4 µM [activator, single point]

2 consecutive entries out of the list so far:
SMILES | Potency
NNC(=O)c1snnc1-c1ccccc1 | inconclusive: 23.1 µM [activator, single point]
O=C(CSc1nc(-c2ccc(F)cc2)cc(C(F)(F)F)n1)NCc1ccco1 | inconclusive: 16.4 µM [activator, single point]

Reference: PubChem BioAssay AID624297 (National Center for Advancing Translational Sciences (NCATS), 2012)
